The text below walks through data of the supplement of paper PMC10849652.

By UniProt entry, the sequences of proteins in these tests, tags left out. Where a name states a change or a piece, a line headed by the entry shows the natural chain unless it says otherwise.
UniProt Q8NHM5: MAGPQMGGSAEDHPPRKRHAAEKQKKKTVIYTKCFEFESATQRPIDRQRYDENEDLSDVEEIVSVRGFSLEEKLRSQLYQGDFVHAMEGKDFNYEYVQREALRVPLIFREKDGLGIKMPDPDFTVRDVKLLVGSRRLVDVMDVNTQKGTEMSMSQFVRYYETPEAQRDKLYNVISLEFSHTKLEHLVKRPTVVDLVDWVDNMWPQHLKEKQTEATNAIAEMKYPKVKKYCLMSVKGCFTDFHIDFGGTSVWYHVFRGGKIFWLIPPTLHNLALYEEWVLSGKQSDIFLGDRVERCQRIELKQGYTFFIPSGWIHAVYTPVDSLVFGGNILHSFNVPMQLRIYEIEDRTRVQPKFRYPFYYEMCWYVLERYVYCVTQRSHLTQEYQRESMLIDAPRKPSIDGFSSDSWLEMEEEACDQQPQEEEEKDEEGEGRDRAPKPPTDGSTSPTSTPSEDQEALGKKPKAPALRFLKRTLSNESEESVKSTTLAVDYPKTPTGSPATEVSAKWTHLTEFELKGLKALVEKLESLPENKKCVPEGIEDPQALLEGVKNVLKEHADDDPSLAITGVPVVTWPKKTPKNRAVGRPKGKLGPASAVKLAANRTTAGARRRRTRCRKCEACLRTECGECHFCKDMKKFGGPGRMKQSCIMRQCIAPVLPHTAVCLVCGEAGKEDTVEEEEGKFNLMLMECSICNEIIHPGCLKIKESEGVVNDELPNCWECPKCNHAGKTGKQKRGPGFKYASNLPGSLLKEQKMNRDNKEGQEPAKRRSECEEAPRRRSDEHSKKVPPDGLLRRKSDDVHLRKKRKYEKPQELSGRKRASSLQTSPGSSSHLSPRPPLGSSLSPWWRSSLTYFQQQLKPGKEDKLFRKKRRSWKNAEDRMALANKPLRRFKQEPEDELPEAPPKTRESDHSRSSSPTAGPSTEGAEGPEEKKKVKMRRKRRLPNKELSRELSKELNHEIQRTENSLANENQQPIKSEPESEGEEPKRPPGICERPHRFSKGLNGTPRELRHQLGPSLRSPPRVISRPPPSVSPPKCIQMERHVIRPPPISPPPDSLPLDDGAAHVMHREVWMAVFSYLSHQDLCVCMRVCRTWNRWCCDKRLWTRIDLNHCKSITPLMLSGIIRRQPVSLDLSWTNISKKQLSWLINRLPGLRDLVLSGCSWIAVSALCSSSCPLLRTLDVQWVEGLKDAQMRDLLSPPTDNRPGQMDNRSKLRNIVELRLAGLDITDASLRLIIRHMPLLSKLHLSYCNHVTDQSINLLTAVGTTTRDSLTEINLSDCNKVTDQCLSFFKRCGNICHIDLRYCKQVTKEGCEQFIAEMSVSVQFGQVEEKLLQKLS
UniProt Q9Y4C1: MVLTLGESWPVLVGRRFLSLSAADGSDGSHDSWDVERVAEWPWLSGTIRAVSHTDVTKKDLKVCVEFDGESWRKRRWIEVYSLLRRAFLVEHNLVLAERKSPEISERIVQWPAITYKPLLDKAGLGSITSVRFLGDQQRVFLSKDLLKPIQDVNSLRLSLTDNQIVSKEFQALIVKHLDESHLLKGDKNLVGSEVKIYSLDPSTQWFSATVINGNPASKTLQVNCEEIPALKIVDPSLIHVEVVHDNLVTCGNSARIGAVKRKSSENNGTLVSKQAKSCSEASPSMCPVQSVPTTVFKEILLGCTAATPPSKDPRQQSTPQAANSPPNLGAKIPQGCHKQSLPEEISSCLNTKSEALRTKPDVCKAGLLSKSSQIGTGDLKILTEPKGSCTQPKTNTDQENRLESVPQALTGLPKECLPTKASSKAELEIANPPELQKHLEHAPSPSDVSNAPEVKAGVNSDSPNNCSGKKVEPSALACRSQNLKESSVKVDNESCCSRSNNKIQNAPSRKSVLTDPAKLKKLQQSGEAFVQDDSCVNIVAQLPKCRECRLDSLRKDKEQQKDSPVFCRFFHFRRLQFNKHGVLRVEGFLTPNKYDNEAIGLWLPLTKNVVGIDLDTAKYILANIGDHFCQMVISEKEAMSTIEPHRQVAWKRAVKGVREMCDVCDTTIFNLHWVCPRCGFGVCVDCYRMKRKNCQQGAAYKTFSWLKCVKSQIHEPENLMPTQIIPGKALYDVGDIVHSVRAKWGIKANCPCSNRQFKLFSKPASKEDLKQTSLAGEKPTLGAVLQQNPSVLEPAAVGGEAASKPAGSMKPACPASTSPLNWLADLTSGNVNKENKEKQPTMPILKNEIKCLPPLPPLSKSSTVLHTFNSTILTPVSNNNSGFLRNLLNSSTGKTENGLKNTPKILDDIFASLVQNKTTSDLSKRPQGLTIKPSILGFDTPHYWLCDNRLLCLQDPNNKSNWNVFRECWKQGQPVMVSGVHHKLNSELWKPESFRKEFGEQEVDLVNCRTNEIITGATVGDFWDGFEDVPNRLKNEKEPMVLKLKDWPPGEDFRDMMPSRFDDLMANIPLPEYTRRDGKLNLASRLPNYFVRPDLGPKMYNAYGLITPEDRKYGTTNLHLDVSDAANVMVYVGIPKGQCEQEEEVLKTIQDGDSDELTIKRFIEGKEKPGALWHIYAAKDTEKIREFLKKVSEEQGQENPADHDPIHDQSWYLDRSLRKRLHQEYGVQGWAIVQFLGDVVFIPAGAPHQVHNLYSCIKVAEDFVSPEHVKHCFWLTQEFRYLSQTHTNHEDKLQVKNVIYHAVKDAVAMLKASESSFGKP
UniProt Q15053: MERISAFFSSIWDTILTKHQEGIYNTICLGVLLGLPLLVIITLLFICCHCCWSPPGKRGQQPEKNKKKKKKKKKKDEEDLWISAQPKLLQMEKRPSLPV
UniProt Q9P2K6: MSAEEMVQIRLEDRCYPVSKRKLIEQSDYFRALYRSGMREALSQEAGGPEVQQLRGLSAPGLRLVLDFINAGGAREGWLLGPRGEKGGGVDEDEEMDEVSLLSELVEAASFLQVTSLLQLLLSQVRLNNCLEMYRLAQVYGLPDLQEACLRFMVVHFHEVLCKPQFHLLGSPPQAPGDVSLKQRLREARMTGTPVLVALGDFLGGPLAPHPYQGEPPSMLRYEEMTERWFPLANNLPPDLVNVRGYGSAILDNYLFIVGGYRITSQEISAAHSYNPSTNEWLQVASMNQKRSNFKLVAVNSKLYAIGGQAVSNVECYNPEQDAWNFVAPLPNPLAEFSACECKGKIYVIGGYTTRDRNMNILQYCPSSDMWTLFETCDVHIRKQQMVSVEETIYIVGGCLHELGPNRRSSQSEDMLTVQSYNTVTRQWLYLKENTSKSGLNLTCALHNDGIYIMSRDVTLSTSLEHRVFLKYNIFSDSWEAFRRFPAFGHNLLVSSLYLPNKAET
UniProt Q9BW19: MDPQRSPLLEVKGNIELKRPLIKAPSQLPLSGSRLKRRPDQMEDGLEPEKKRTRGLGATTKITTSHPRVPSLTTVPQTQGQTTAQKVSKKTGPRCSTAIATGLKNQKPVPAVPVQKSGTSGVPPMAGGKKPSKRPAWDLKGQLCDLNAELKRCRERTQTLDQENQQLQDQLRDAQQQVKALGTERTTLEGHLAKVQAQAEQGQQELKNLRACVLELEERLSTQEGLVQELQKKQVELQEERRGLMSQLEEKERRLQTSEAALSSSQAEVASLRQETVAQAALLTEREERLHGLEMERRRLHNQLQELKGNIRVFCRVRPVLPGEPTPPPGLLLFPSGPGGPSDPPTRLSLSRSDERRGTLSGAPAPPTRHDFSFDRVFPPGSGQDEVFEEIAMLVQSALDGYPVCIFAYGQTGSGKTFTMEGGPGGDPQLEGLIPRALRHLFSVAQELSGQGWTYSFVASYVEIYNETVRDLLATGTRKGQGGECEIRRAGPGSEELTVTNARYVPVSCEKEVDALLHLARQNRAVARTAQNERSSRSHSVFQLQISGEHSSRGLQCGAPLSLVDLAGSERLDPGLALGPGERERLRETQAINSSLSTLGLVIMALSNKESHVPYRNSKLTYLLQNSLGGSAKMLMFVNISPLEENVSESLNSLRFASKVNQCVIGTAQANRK
UniProt Q96L93: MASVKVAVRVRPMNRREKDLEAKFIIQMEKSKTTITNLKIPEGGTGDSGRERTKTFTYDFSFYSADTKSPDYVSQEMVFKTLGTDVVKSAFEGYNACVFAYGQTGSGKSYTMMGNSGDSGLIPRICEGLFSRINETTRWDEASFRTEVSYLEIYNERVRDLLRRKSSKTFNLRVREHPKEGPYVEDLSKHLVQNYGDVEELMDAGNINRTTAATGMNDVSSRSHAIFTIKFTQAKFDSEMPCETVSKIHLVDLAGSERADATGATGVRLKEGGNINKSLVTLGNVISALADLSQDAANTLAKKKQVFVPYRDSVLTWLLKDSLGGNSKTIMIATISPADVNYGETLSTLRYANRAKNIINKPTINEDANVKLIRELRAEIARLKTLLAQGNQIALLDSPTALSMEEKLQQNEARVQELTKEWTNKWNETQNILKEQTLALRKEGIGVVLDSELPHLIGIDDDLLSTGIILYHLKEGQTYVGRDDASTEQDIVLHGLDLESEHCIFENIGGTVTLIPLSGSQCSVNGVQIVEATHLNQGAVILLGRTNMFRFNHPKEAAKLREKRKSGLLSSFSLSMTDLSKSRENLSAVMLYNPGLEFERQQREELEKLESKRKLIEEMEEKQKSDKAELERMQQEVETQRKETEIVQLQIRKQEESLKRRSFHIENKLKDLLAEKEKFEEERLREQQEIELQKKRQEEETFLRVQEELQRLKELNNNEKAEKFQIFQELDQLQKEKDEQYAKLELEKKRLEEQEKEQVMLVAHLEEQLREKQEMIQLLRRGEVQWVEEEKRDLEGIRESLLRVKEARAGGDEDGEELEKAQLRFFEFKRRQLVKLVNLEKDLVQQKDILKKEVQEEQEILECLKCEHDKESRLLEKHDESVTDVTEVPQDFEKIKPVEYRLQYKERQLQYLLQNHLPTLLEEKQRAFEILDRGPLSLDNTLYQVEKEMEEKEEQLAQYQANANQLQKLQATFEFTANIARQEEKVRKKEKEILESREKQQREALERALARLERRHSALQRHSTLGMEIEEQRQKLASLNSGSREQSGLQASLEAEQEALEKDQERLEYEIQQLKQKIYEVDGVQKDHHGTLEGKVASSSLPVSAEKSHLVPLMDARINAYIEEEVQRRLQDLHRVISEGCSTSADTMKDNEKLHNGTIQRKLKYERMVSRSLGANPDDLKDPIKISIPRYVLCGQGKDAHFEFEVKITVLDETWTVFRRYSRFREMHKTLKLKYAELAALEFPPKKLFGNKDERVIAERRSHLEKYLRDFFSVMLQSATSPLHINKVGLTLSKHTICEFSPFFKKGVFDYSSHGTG
UniProt O95239: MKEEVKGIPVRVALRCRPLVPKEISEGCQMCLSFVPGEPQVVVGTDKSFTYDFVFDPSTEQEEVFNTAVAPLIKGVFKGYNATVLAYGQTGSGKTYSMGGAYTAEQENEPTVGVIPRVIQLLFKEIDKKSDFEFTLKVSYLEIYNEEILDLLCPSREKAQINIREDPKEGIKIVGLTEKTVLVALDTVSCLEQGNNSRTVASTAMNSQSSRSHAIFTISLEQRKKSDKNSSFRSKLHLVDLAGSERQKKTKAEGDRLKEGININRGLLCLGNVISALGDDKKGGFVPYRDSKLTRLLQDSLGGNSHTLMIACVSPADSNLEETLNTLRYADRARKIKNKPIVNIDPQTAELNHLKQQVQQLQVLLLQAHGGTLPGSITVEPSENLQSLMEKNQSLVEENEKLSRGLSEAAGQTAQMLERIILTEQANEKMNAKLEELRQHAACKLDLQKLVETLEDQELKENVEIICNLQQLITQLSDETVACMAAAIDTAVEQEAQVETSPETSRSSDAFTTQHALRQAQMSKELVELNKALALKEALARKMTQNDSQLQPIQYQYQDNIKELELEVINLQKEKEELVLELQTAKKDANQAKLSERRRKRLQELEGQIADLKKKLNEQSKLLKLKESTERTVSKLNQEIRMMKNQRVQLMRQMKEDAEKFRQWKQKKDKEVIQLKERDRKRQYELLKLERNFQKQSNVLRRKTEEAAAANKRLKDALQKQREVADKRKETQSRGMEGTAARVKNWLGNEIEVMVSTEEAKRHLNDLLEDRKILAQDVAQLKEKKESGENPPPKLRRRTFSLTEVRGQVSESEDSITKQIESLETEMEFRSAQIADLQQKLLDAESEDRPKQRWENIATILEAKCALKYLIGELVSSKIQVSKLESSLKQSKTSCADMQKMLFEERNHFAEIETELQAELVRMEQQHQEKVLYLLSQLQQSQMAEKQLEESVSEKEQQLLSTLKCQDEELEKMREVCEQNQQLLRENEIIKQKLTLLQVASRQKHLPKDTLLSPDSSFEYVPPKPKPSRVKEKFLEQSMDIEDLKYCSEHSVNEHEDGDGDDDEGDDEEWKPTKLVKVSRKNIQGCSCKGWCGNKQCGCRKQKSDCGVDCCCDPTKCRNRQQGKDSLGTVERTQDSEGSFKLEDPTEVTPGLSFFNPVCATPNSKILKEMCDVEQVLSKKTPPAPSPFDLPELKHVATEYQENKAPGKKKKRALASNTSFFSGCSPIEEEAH

Some of the results follow.

Compound in the first assay: CON(C)C(=O)N1N=C(c2cc(F)ccc2F)S[C@@]1(CCCN)c1ccccc1 [filanesib]
The assay can be described thus: log2 fold change, soluble protein after heating vs DMSO (PISA); higher = thermal stabilisation; K562 cells, 10 uM, 30 min; active = over 0.2 and 3.5 SD of the protein, either way, in both replicates (recomputed). The essentials:
(§1)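 Thermal stability values are relative to control samples and come from duplicates. They are expressed as log2 fold changes. For measurement, K562 cells (2×10^6 cells/mL) received 10 μM compound for 30 min, and aliquots were heated for 3 min over 48°C-58°C, pooled, and extracted at 4°C in PBS with 0.5% NP-40. Soluble protein, the supernatant after 21,000xg for 90 min, was quantified by TMTpro 16plex LC-MS/MS with equalised channel sums.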
Turning to KIN (UniProt O60870), the log2 fold change is inactive: 0.142.
Turning to KDM2B (UniProt Q8NHM5), the log2 fold change was inactive: 0.043.
For KSR2 (UniProt Q6VAB6), the log2 fold change was inactive: 0.281.
In the case of KMT5A (UniProt Q9NQR1), the log2 fold change was active: 0.976.
On to JMJD7 (UniProt P0C870), for which the log2 fold change is inactive: 0.116.

Compound in the next assay: CO[C@H]1C[C@@H]2CC[C@@H](C)[C@@](O)(O2)C(=O)C(=O)N2CCCC[C@H]2C(=O)O[C@H]([C@H](C)C[C@@H]2CC[C@H](n3cnnn3)[C@H](OC)C2)CC(=O)[C@H](C)/C=C(\C)[C@@H](O)[C@@H](OC)C(=O)[C@H](C)C[C@H](C)/C=C/C=C/C=C/1C [zotarolimus]
The assay is described as above. The essentials:
as §1
As for KIAA0754 (UniProt O94854), the log2 fold change was inactive: 0.041.
Take KALRN (UniProt O60229): the log2 fold change was inactive: 0.105.
Same read-out and setting: in the case of KDM3A (UniProt Q9Y4C1) it was inactive: -0.222.
Take KMT2E (UniProt Q8IZD2): the log2 fold change is inactive: 0.047.
Regarding KIAA0040 (UniProt Q15053), the log2 fold change is inactive: -0.124.
KLHL42 (UniProt Q9P2K6): the log2 fold change is inactive: 0.065.
In the case of KIFC1 (UniProt Q9BW19), the log2 fold change was inactive: 0.068.
Consider KDM6A (UniProt O15550), for which the log2 fold change was inactive: 0.272.
JOSD1 (UniProt Q15040): the log2 fold change is inactive: -0.038.
Consider KIF16B isoform 2 (UniProt Q96L93), for which the log2 fold change was inactive: -0.054.
For the target KIF4A (UniProt O95239), the log2 fold change was inactive: -0.037.
